Experimental data taken from PMC8568920, “Serum apolipoprotein A-I potentiates the therapeutic efficacy of lysocin E against Staphylococcus aureus” (Nature Communications, 2021).

System: MRSA MR6 strain
Experiment: Mouse systemic MRSA infection model, survival ED50
Format: in vivo
Details: ratio of mouse ED50 to in vitro MIC
Protocol: Mouse protocols followed the Regulations for Animal Care and Use of the University of Tokyo under approval by the Graduate School of Pharmaceutical Science at the University of Tokyo (approval nos. 24–55). Mice were housed in a group of at most five in a cage, kept in a room maintained at 23–24 °C, 55% humidity, and 12 h light/12 h dark cycle. For Table 1, clinically isolated MRSA MR6 strain[47] was cultured overnight, suspended in 7% type II porcine stomach mucin supplemented with 0.2 mM FeNH4-citrate and intraperitoneally administered to mice (ICR, female, 4 weeks of age) at 5.7 × 10^7 colony-forming units. Lysocin E (4–0.25 mg kg^−1), vancomycin (8–0.5 mg kg^−1), linezolid (8–0.5 mg kg^−1), or daptomycin (4–0.25 mg kg^−1) were administered subcutaneously to 5 animals/group at 1 h and 6 h after infection. Mouse survival was assessed after 5 days and ED50 values were calculated by multiple logistic regression analysis. For Fig. 1d, the Newman strain was cultured in TSB overnight and cells (4.0 × 10^7 colony-forming units) were washed in phosphate-buffered saline (PBS) were injected into the tail vein of 8–12-week-old female C57BL/6J wild-type mice or Apoa1 homozygous-deficient mice. After 2 h, lysocin E (0.5 mg kg^−1) was administered subcutaneously. After 24 h, the kidneys were harvested and crushed with a BioMasher II (Nippi Incorporated, Tokyo, Japan). The suspensions were diluted with PBS(−), plated on TSB agar medium and the number of colonies was counted.

SMILES	ED50/MIC
CCCCCCCCCC(=O)N[C@@H](Cc1c[nH]c2ccccc12)C(=O)N[C@H](CC(N)=O)C(=O)N[C@@H](CC(=O)O)C(=O)N[C@@H]1C(=O)NCC(=O)N[C@@H](CCCN)C(=O)N[C@@H](CC(=O)O)C(=O)N[C@H](C)C(=O)N[C@@H](CC(=O)O)C(=O)NCC(=O)N[C@H](CO)C(=O)N[C@@H]([C@H](C)CC(=O)O)C(=O)N[C@@H](CC(=O)c2ccccc2N)C(=O)O[C@@H]1C [Daptomycin, daptomycin]	1.6
CC(=O)NC[C@H]1CN(c2ccc(N3CCOCC3)c(F)c2)C(=O)O1 [Linezolid, linezolid]	1.9
CN[C@H](CC(C)C)C(=O)N[C@H]1C(=O)N[C@@H](CC(N)=O)C(=O)N[C@H]2C(=O)N[C@H]3C(=O)N[C@H](C(=O)N[C@H](C(=O)O)c4cc(O)cc(O)c4-c4cc3ccc4O)[C@H](O)c3ccc(c(Cl)c3)Oc3cc2cc(c3O[C@@H]2O[C@H](CO)[C@@H](O)[C@H](O)[C@H]2O[C@H]2C[C@](C)(N)[C@H](O)[C@H](C)O2)Oc2ccc(cc2Cl)[C@H]1O [Vancomycin, vancomycin]	4.2
